Laboratory results reported in patent US10836815B2, “Generation and comparative kinetic analysis of new glycosynthase mutants from Streptococcus pyogenes endoglycosidases for antibody glycoengineering” (UNIVERSITY OF MARYLAND, COLLEGE PARK, priority 2017, dated 2020).
Substitutions are numbered along the chain they refer to. Names may count otherwise. At least one read-out could not be matched to a standard name with certainty.

Assays:
[1] = Kinetic measurements (KM, Vmax) of Endo-S/Endo-S2 mutants for SCT-Oxa; type: biochemical; conditions: for kcat/KM: Endo-S2 mutants, donor substrate SCT-Oxa
Procedure: Using a sialylated glycan oxazoline (SCT-Oxa) as the donor and the deglycosylated rituximab as the acceptor substrate, we measured the kinetic parameters of the enzyme catalyzed glycosylation were measured. A mass spectrometry-based approach with an internal standard was used to estimate the product formation.^31-33.
(§1) Peptide-N-Glycosidase F (PNGase F) treated rituximab was used as the internal standard due to its similarities to the deglycosylated and transferred product in terms of their molecular structures and ionization efficiencies. After PNGase F treatment, a mutation will be introduced into the amino acid sequence of rituximab so the product antibody will not interfere with the reaction via re-glycosylation^35. A standard product S2G2F-rituximab was synthesized following the previously reported procedure^29. […] Serial dilutions containing a gradient of S2G2F-rituximab (0, 0.25, 0.5, 0.75, 1.0, 1.25 and 1.5 μM) were mixed with a stock solution containing 0.67 μM internal standard. These mixed sample solutions were quantified by selected ion monitoring (SIM) to calculate the single-point normalization factor^31. The factor could then be used to calculate the relative amount of the final product N-glycoform for each reaction in the following experiments.
Measurements of KM and Vmax for SCT-oxa. Serial dilutions with a total volume of 10 μL were prepared with a gradient of SCT-oxa concentrations and a constant deglycosylated antibody concentration mixed in PBS, pH 7.4. Each reaction was initiated by adding 1μμL, of Endo-S/S2 mutants with a concentration of 0.1 mg/M1 and the reaction was conducted at 30° C. The concentrations of SCT-oxa were within a range from 6.25 μM to 400 μM. […] The quenched reaction samples were then characterized by ESI-MS, and the concentration of product in each mixture was calculated using the normalization factor, as shown above. […] The KM and Vmax were measured by fitting the initial velocity against the SCT-oxa concentration using the GraphPad Prism7 program. […]

[2] = tested on: deglycosylated rituximab; test: Kinetic measurements (KM, Vmax) of Endo-S/Endo-S2 mutants for deglycosylated rituximab; type: biochemical; conditions: Endo-S2 mutants, acceptor substrate deglycosylated rituximab
Description: as §1, with “The factor could then be used to calculate the relative amount of the final product N-glycoform for each reaction in the following experiments.” left out
Measurements of KM and Vmax for SCT-oxa. […] The quenched reaction samples were then characterized by ESI-MS, and the concentration of product in each mixture was calculated using the normalization factor, as shown above. A linear progression curve was confirmed for each reaction by sampling at multiple early time points and plotting them in the same graph, which emphasized that the V0 measured indeed represents the initial rate of each reaction. The KM and Vmax were measured by fitting the initial velocity against the SCT-oxa concentration using the GraphPad Prism7 program. […]

B1: Endo-S2 D184M (protein)
chain: EEKTVQTGKTDQQVGAKLVQEIREGKRGPLYAGYFRTWHDRASTGIDGKQQHPENTMAEVPKEVDILFVFHDHTASDSPFWSELKDSYVHKLHQQGTALVQTIGVNELNGRTGLSKDYPDTPEGNKALAAAIVKAFVTDRGVDGLDIMIEHEFTNKRTPEEDARALNVFKEIAQLIGKNGSDKSKLLIMDTTLSVENNPIFKGIAEDLDYLLRQYYGSQGGEAEVDTINSDWNQYQNYIDASQFMIGFSFFEESASKGNLWFDVNEYDPNNPEKGKDIEGTRAKKYAEWQPSTGGLKAGIFSYAIDRDGVAHVPSTYKNRTSTNLQRHEVDNISHTDYTVSRKLKTLMTEDKRYDVIDQKDIPDPALREQIIQQVGQYKGDLERYNKTLVLTGDKIQNLKGLEKLSKLQKLELRQLSNVKEITPELLPESMKKDAELVMVGMTGLEKLNLSGLNRQTLDGIDVNSITHLTSFDISHNSLDLSEKSEDRKLLMTLMEQVSNHQKITVKNTAFENQKPKGYYPQTYDTKEGHYDVDNAEHDILTDFVFGTVTKRNTFIGDEEAFAIYKEGAVDGRQYVSKDYTYEAFRKDYKGYKVHLTASNLGETVTSKVTATTDETYLVDVSDGEKVVHHMKLNIGSGAIMMENLAKGAKVIGTSGDFEQAKKIFDGEKSDRFFTWGQTNWIAFDLGEINLAKEWRLFNAETNTEIKTDSSLNVAKGRLQILKDTTIDLEKMDIKNRKEYLSNDENWTDVAQMDDAKAIFNSKLSNVLSRYWRFCVDGGASSYYPQYTELQILGQRLSNDVANTLKD
- kcat/KM [1]: 12200 M⁻¹ s⁻¹
- overall catalytic efficiency (kcat/KM) compared with Endo-S D233M (in words) ([1]; for both the sugar oxazoline and the antibody substrates): higher than that of Endo-S D233M
- kcat/KM [2]: 15200 M⁻¹ s⁻¹

B2: Endo-S2 D184A (protein)
chain: B1 chain with M148A
- kcat/KM [1]: 1300 M⁻¹ s⁻¹
